According to patent publication US20230330040A1, “IMMUNOLOGICAL EFFECTS OF METABOLITES” (The Regents of the University of California, priority 2020, published 2023):
Some of these results come from one statement about several compounds together.

tested on: citrullinated fibrinogen immune complex (cFb ICs) stimulated primary human macrophage; assay: Citrullinated fibrinogen immune complex assay (TNF-α secretion, ELISA); type: cell-based; settings: screening at various concentrations (1 mM-10 nM); compared with 1 mM BHB

Structure (SMILES) | amelioration of TNF-α secretion from stimulated macrophage in comparison to treatment with 1 mM BHB
C[n+]1cccc(C(N)=O)c1 [1-MNA, 1-methylnicotinamide] | at least 50%
CCCCCCCC/C=C\CCCCCCCC(=O)NCCO [OEA, oleoylethanolamide] | at least 50%
CCCCCCCCCCCCCCCC(=O)NCCO [PEA, palmitoylethanolamide] | at least 50%
NCCCCNCCCN [spermidine] | at least 50%
